# From publication PMC5996148
# By UniProt entry, the sequences of proteins in these tests, tags left out. Where a name states a change or a piece, a line headed by the entry shows the natural chain unless it says otherwise.
# UniProt Q92481: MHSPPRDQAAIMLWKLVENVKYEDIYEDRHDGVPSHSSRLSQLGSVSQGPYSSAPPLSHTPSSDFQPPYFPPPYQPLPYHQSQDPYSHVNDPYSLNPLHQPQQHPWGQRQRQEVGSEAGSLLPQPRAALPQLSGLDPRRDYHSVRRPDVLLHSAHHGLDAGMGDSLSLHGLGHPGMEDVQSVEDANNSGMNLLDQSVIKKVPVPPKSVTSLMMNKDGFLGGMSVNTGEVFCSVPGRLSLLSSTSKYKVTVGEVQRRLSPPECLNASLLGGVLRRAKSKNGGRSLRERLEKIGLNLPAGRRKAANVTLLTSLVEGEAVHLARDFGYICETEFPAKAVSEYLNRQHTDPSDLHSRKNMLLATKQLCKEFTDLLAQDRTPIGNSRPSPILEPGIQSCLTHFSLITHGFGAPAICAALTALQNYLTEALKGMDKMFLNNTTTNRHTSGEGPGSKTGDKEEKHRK
# Several values for one entry are separate records, joined by “and”; a condition that tells them apart may be missing. Identical values can stand only once. The list shows a part of the results. For some of these results: The source does not settle which construct or isoform was used.
# Assays:
# Assay in all cases: protein microarray (ProtoArray v5.0), streptavidin-Alexa Fluor 647
# Conditions in all cases: 3'-biotin; 20 mM Tris (pH 7.5), 5 mM MgCl2, 100 mM KCl, 0.1% Tween-20, A/T-rich and random oligonucleotide blockers; temperature not stated; high values mean tight binding
# [1] = molecular target: TFAP2B (UniProt Q92481)
# [2] = test system: THEM5 (human)
# [3] = molecular target: T1, THEX1 (UniProt Q8IV48)
# T1 sequence: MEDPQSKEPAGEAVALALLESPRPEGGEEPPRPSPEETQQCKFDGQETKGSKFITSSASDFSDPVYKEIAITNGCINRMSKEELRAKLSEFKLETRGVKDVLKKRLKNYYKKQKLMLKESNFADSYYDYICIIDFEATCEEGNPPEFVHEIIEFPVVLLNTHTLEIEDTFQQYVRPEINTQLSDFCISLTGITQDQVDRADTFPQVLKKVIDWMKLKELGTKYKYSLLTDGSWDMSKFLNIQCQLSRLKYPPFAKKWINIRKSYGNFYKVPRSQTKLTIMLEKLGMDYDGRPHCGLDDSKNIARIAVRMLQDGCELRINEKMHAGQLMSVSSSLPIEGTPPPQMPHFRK
# [4] = test system: THRSP (human)
# [5] = test system: TICAM2 (human)
# [6] = test system: TIMM8A (human)
# [7] = test system: TIMM8B (human)
# [8] = test system: TINAGL1 (human)
# [9] = test system: TIPIN (human)
# [10] = test system: TLE3 (human)
sequence,measurement,setting,value
GGGGACAGGGGTATGGGGAGGGG [G4-3 biotinylated (CtG)],binding signal,[1],3.73 z-score
same,binding signal,[2],-0.328 z-score
same,binding signal,[3],4.03 z-score
same,binding signal,[4],-0.317 z-score
same,binding signal,[5],-0.301 z-score
same,binding signal,[6],-0.325 z-score
same,binding signal,[7],-0.331 z-score
same,binding signal,[8],-0.309 z-score
same,binding signal,[9],-0.337 z-score
same,binding signal,[10],-0.337 z-score and -0.33 z-score
